Data published in publication PMC4729957, “The Atg1–kinase complex tethers Atg9-vesicles to initiate autophagy” (Nature Communications, 2016).
Results are given in words; binding and its absence hold for the method and conditions named. For part of these data: Binding seen in cells or lysates may run through a third protein. Some results given as binding are weak or reduced against the parent protein; the word gives no strength. For part of these data: Tags and fused reporters may be left off the sequences shown.

Chains of the proteins cited; added tags and fusions are not shown. Lines headed by an entry give the natural chain unless they say otherwise; changes in a name come on top.
UniProt P53104: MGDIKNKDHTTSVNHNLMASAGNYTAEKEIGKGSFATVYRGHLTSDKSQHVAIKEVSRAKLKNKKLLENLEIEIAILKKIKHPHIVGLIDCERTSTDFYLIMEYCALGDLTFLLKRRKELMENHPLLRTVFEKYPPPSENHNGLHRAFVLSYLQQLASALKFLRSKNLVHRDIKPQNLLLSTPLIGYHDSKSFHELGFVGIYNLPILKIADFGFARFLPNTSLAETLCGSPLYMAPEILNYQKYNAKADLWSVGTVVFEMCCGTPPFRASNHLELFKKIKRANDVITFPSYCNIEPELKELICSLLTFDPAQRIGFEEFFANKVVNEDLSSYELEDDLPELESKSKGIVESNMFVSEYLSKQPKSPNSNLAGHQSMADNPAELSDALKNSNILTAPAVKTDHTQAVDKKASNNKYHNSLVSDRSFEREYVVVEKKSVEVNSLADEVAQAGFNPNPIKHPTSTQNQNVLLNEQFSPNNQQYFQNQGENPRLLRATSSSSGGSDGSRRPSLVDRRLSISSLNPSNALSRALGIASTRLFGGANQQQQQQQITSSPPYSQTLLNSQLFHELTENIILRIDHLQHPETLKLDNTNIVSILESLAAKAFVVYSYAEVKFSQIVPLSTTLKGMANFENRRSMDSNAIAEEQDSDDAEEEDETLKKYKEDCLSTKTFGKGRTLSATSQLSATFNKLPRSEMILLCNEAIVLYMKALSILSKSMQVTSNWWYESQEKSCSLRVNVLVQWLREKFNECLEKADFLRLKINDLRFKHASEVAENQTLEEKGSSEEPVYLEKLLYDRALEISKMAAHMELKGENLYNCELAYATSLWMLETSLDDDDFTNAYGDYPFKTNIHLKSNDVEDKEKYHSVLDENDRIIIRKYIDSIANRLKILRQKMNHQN

How the values were obtained:
[1] = molecular target: T1, Atg9^core (Atg9^281–779), reconstituted in proteoliposomes (S. cerevisiae) (UniProt Q12142); assay: co-floatation with proteoliposomes; Atg9 variant held in proteoliposomes (synthetic lipids without PI), partner in solution at 1:1, Nycodenz step gradient, 650,000g 2 h at 4 °C, 25 mM HEPES pH 7.0, 100 mM NaCl; top fraction read by SDS–PAGE or α-myc immunoblot; both purified
T1 sequence: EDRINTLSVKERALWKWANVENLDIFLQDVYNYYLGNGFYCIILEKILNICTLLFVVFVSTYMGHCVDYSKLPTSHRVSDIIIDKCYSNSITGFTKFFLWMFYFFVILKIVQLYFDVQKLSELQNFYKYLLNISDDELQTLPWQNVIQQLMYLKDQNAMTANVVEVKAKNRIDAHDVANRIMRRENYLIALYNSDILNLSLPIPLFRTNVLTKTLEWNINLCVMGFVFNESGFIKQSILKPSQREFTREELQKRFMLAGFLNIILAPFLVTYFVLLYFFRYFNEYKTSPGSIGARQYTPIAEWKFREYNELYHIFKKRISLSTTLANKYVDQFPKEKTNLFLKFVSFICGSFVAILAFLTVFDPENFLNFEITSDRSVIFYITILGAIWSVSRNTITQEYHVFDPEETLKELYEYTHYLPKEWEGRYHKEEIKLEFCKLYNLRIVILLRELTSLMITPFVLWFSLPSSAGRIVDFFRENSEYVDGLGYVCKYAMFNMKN

Atg31 (S. cerevisiae) = molecular target: T2, Atg31 (S. cerevisiae) (UniProt Q12421); assay: co-purification of co-expressed proteins (Ni-NTA, SEC); co-expression in E. coli Rosetta (Atg17, Atg31 and Atg29 from pST39 with the tag on Atg17; Atg31 with Atg29), Ni-NTA and SEC
T2 sequence: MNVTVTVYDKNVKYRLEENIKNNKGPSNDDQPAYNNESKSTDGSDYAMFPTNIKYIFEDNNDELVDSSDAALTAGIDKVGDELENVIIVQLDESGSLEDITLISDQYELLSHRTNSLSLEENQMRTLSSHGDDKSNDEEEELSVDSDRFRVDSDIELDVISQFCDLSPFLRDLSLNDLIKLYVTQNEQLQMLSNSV

Atg17 (S. cerevisiae) = molecular target: T3, Atg17 (S. cerevisiae) (UniProt Q06410); assay: as above
T3 sequence: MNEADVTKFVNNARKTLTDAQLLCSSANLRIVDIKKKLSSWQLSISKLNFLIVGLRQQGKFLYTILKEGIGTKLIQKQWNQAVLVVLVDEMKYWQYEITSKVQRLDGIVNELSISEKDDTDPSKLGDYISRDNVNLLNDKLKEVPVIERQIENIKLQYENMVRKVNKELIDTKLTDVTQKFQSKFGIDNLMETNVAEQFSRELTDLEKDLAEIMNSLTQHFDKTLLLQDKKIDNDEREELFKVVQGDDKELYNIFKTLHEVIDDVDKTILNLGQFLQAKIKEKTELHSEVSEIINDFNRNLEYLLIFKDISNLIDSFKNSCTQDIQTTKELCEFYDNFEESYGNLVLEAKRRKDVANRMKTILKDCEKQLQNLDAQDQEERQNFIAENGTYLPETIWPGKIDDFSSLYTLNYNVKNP

[2] = molecular target: T4, Atg17^GFP in yeast (S. cerevisiae) (UniProt Q06410); assay: co-IP; GFP-Trap-M beads, yeast lysate (25 mM Tris-HCl pH 7.2, 150 mM NaCl, 0.2% NP-40), 2 h at 4 °C; α-HA immunoblot
T4 sequence: T3 sequence

[3] = molecular target: T5, Atg17^myc in yeast (S. cerevisiae) (UniProt Q06410); assay: co-IP; α-myc antibody on magnetic protein A beads, yeast lysate (25 mM Tris-HCl pH 7.2, 150 mM NaCl, 0.2% NP-40), 2 h at 4 °C; vegetative cells and cells starved for 2 h; wild-type, atg1Δ and atg13Δ cells; α-HA immunoblot
T5 sequence: T3 sequence

[4] = molecular target: T5, Atg17^myc in yeast (S. cerevisiae); assay: co-IP; the pair that is blocked in a11: α-myc IP of Atg17^myc from lysates of cells starved for 2 h, Atg9^HA by α-HA immunoblot
[5] = molecular target: T6, GST-Atg31^160–196 (S. cerevisiae) (UniProt Q12421); assay: pull-down; 10 μg GST-Atg31^160–196 incubated with yeast cell lysate, Glutathione Sepharose 4B beads, washed with lysis buffer with an additional 100 mM NaCl; only the target purified
T6 sequence: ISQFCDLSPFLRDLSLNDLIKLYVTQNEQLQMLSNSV

In the case of “Atg1^monoPC with myc-tagged Atg17^1–354 (from UniProt P53104 1-897; Q06628 1-738; Q06410 1-354; Q12421 1-196; Q12092 1-213) (complex)”, the binding [1] is reported as “binds weakly”.

B1: Atg29 (protein, UniProt Q12092 1-213)
chain: MIMNSTNTVVYIKVKGRRPQGFLDPPKFEWNGTKERQLWTMVSNLNYSQDQIDWQNLSKIFETPEFFLKKRTYKLFAEHLELLQLQLEKKRDLEKYSNDQVNEGMSDLIHKYTPTLQNDNLLNVSASPLTTERQDSEEVETEVTNEALQHLQTSKILNIHKKTSDSENKPNDKLDKDGINKEMECGSSDDDLSSSLSVSKSALEEALMDRLQF
With B1 the binding (Atg31 (S. cerevisiae)) was “binds” and the binding (Atg17 (S. cerevisiae)) was “binds”.

B2: Atg31 (protein, UniProt Q12421 1-196)
chain: T2 sequence
With B2 the binding (Atg17 (S. cerevisiae)) was “binds”.

B3: HA-tagged Atg9^core in yeast (pRS316-Atg9^core-3xHA) (domain or fragment, UniProt Q12142 281-779)
chain: T1 sequence
In the case of B3, the binding [2] is reported as “binds”.

B4: Atg9^WT, HA-tagged, in yeast (pTL58-Atg9–3xHA) (protein, UniProt Q12142 1-997)
chain: MERDEYQLPNSHGKNTFLSRIFGLQSDEVNPSLNSQEMSNFPLPDIERGSSLLHSTNDSREDVDENDLRVPESDQGTSTEEEDEVDEEQVQAYAPQISDGLDGDHQLNSVTSKENVLETEKSNLERLVEGSTDDSVPKVGQLSSEEEEDNEFINNDGFDDDTPLFQKSKIHEFSSKKSNTIEDGKRPLFFRHILQNNRPQRDTQKLFTSSNAIHHDKDKSANNGPRNINGNQKHGTKYFGSATQPRFTGSPLNNTNRFTKLFPLRKPNLLSNISVLNNTPEDRINTLSVKERALWKWANVENLDIFLQDVYNYYLGNGFYCIILEKILNICTLLFVVFVSTYMGHCVDYSKLPTSHRVSDIIIDKCYSNSITGFTKFFLWMFYFFVILKIVQLYFDVQKLSELQNFYKYLLNISDDELQTLPWQNVIQQLMYLKDQNAMTANVVEVKAKNRIDAHDVANRIMRRENYLIALYNSDILNLSLPIPLFRTNVLTKTLEWNINLCVMGFVFNESGFIKQSILKPSQREFTREELQKRFMLAGFLNIILAPFLVTYFVLLYFFRYFNEYKTSPGSIGARQYTPIAEWKFREYNELYHIFKKRISLSTTLANKYVDQFPKEKTNLFLKFVSFICGSFVAILAFLTVFDPENFLNFEITSDRSVIFYITILGAIWSVSRNTITQEYHVFDPEETLKELYEYTHYLPKEWEGRYHKEEIKLEFCKLYNLRIVILLRELTSLMITPFVLWFSLPSSAGRIVDFFRENSEYVDGLGYVCKYAMFNMKNIDGEDTHSMDEDSLTKKIAVNGSHTLNSKRRSKFTAEDHSDKDLANNKMLQSYVYFMDDYSNSENLTGKYQLPAKKGYPNNEGDSFLNNKYSWRKQFQPGQKPELFRIGKHALGPGHNISPAIYSTRNPGKNWDNNNNGDDIKNGTNNATAKNDDNNGNNDHEYVLTESFLDSGAFPNHDVIDHNKMLNSNYNGNGILNKGGVLGLVKEYYKKSDVGR
In the case of B4, the binding [3] is reported as “binds” and the binding [4] is reported as “binds”.

B5: Atg17^myc in yeast (protein, UniProt Q06410 1-417)
chain: T3 sequence
With B5 the binding [5] was “binds”.

B6: Atg17^monoTC with myc-tagged Atg17^1–354 (complex, UniProt Q06410 1-354; Q12421 1-196; Q12092 1-213)
chain 1: MNEADVTKFVNNARKTLTDAQLLCSSANLRIVDIKKKLSSWQLSISKLNFLIVGLRQQGKFLYTILKEGIGTKLIQKQWNQAVLVVLVDEMKYWQYEITSKVQRLDGIVNELSISEKDDTDPSKLGDYISRDNVNLLNDKLKEVPVIERQIENIKLQYENMVRKVNKELIDTKLTDVTQKFQSKFGIDNLMETNVAEQFSRELTDLEKDLAEIMNSLTQHFDKTLLLQDKKIDNDEREELFKVVQGDDKELYNIFKTLHEVIDDVDKTILNLGQFLQAKIKEKTELHSEVSEIINDFNRNLEYLLIFKDISNLIDSFKNSCTQDIQTTKELCEFYDNFEESYGNLVLEAKRRKD
chain 2: T2 sequence
chain 3: B1 chain
For B6, the binding [1] was “binds weakly”.
